Publication PMC8858932

How the values were obtained:
[1] = biological target: T1, Bombyx mori translationally controlled tumor protein, K164R mutant, FLAG-tagged (FLAG-TCTP-K164R) (Bombyx mori) (UniProt Q75VN3); assay: affinity purification with mass spectrometry; whole-cell lysates (RIPA buffer) of BmN cell lines stably expressing FLAG-TCTP-WT or FLAG-TCTP-K164R; immunoprecipitation with anti-FLAG M2 affinity gel; eluate digested with trypsin and analysed by LC-MS/MS (MaxQuant, at least one unique peptide)
T1 sequence: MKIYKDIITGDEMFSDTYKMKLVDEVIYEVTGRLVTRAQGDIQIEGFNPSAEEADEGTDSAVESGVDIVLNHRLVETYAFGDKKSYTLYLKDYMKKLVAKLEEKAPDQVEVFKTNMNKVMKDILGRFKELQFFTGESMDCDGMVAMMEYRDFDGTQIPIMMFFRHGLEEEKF

[2] = biological target: T2, Bombyx mori translationally controlled tumor protein, wild type, FLAG-tagged (FLAG-TCTP-WT) (Bombyx mori) (UniProt Q75VN3); assay: as above
T2 sequence: T1 sequence with R164K

Row | Substance | binding [1] | binding [2]
1 | Bombyx mori interleukin enhancer binding factor (BmILF) | no binding | binds
2 | SUMO-activating enzyme (Bombyx mori (endogenous in BmN)) | no binding | binds

Positions count from the first letter of the chain named. These are yes or no findings as the source states them, for the method shown. In cells and extracts the contact can be indirect. A yes stands for co-enrichment or nearness to the bait. Other partners may have been found. For some of these results: No binding means not detected with the bait. Tags and fused reporters may be left off the sequences shown.
